Measured values from the supplement of paper PMC3334620.
Whole data set: some 33,000 sequences, median “E-score (-0.5 to 0.5)” near -0.015, cut for the highest 2% near 0.3. Some of the results follow.

Target: T1, Abf1 (UniProt P14164)
T1 sequence: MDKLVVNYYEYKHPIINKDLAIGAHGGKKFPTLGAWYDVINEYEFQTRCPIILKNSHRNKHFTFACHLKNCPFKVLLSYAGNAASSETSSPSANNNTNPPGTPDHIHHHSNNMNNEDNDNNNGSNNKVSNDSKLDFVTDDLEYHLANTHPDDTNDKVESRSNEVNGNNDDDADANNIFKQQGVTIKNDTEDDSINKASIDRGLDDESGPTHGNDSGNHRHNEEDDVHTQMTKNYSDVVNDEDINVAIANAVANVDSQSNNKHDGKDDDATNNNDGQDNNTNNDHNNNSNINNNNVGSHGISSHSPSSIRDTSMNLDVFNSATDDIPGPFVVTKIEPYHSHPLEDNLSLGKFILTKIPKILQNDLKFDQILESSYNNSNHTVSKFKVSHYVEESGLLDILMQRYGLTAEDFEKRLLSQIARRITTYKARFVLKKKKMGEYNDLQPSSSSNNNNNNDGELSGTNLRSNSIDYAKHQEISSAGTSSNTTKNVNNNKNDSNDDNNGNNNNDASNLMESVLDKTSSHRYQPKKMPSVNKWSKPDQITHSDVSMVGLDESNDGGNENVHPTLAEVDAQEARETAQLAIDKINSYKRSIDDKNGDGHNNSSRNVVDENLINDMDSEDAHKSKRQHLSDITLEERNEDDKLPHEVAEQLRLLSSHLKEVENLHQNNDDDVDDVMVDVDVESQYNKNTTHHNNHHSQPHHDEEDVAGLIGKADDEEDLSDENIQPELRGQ
Assay: PBM E-score (8-mer binding enrichment) (E-score (-0.5 to 0.5)); higher = stronger / more preferred TF binding
Settings: protein concentration: 200 nM; construct: GST-full length
In short: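 Yeast transcription factors carrying a GST tag, as full-length proteins or DNA-binding domains, were produced by PURExpress in vitro transcription/translation. About 100-200 nM protein was applied to universal all-10-mer Agilent arrays, double-stranded by primer extension on fresh or once-stripped slides. Bound protein was detected with fluorescent anti-GST, and scans were normalised with masliner. The Universal PBM Analysis Suite gave each ungapped eight-base word, pooled with its reverse complement, an E-score, a modified Wilcoxon-Mann-Whitney statistic.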

Row | Sequence | PBM E-score
1 | AGCGAATA | 0.202
2 | TCAATGCA | 0.0463
3 | CTGATGTA | -0.129
4 | AAATGTGT | 0.111
5 | AGACGTCT | -0.0435
6 | ACTCCTCG | 0.064
7 | ACAGTGCG | -0.236
8 | GAGCGATA | 0.223
9 | CTAGTTGC | 0.0763
10 | AAGAATAT | 0.00319
11 | GCGCACAA | -0.0646
12 | CGTCCCCC | -0.0818
13 | ACGGTGTA | 0.147
14 | AGTCGTTA | 0.197
15 | GCGGAAAC | -0.206
16 | ATACCATC | -0.131
17 | CCTTGTTA | -0.0617
18 | ATCTGATG | 0.0857
19 | ATAATCGG | 0.21
20 | GTATCTAA | 0.158
21 | TCCGTACA | 0.368
22 | GAACATAC | 0.114
23 | ACAAAAAC | 0.0631
24 | GGCAACAC | -0.224
25 | AGGCAGTA | 0.0109

Row | Sequence | PBM E-score
26 | TAACGAAA | 0.243
27 | GACTACAA | 0.0332
28 | ACGAGCGA | 0.122
29 | CAGGAGGA | -0.326
30 | GAATGGCA | -0.0593
31 | CGCAGATA | 0.0501
32 | ATCTCGAC | 0.067
33 | CACAGCGA | 0.127
34 | CCGTTACC | 0.0765
35 | ATACGCTA | -0.0566
36 | AGACGGAG | -0.0967
37 | GATATGAA | 0.191
38 | GTCGAATA | 0.0127
39 | CATAATGG | -0.041
40 | ATCTTAGA | 0.08
41 | ATTATGTA | 0.239
42 | ACTCCCCC | -0.34
43 | ACTTGAAC | 0.0546
44 | GTGACGCA | 0.103
45 | AAGTATAC | 0.0628
46 | ACGTCTGG | -0.0845
47 | CACTAATG | 0.134
48 | ACCAGTCT | -0.188
49 | ACTCTTCA | 0.0659
50 | ACCGGTTG | 0.0539

Row | Sequence | PBM E-score
51 | CGTCTCTC | 0.162
52 | AACACGGC | 0.122
53 | AGTCTGGG | -0.236
54 | AACTCTTG | 0.102
55 | ATAAGGCC | -0.0789
56 | AGCAATGC | -0.0441
57 | AGTCGATA | 0.0594
58 | AGATGGGA | -0.229
59 | AGACAGAT | -0.00326
60 | AAACGAAG | 0.108
61 | CGACGTTC | 0.0472
62 | GATCAAAA | 0.0756
63 | GCGACTCC | -0.251
64 | TGTCATAA | 0.237
65 | CTCTGCAA | -0.0134
66 | ATTCCTAA | 0.12
67 | TGGCTAAA | 0.0139
68 | GTAAAAAA | 0.109
69 | GTGCGCCA | -0.0984
70 | AGGCGGAC | -0.314
71 | AGTTACGA | 0.296
72 | CGACATGC | 0.022
73 | CGAGGCGA | -0.0356
74 | AGCCCTCC | -0.235
75 | AATACACG | 0.0382

Row | Sequence | PBM E-score
76 | AACTTTAG | 0.0369
77 | AAGCTCAA | -0.0707
78 | CTCTCTTC | -0.0447
79 | GCTGAAGC | -0.182
80 | GATCTTAC | 0.0982
81 | GATATTAA | 0.162
82 | AGCGAGCG | 0.0666
83 | CTTCAAGA | 0.078
84 | GACACGTC | 0.153
85 | GATCTTAA | 0.16
86 | ACGCTCCG | -0.0758
87 | AGGCTTCG | -0.06
88 | ACGAGATC | 0.218
89 | GCACGCGC | -0.0247
90 | AGACTGAC | -0.172
91 | CTTGCCTA | -0.0121
92 | AGTAATTG | 0.0426
93 | GTTAAGGA | 0.0551
94 | ACTGGGCT | -0.175
95 | ATTGCCTA | -0.243
96 | CGCGTCCC | -0.0883
97 | CACCGGCA | -0.0788
98 | CTGCGTCA | -0.122
99 | AGTTCGTC | 0.164
100 | ATGTATAG | -0.054

Row | Sequence | PBM E-score
101 | AGAGCGCA | -0.177
102 | AACTCGAC | -0.0456
103 | ATCCCAAT | 0.0553
104 | AATTTGGG | 0.11
105 | AGTGCCTA | -0.0364
106 | ACTGCGAG | -0.13
107 | AAGAGGGT | -0.141
108 | AGTCAATC | 0.108
109 | CGGGACGC | -0.247
110 | AAGAGCTC | 0.143
111 | CTAGCATC | -0.15
112 | ACAACTGT | -0.0665
113 | AAGTGCAG | -0.266
114 | CACCTAGG | -0.23
115 | ACCCGATC | 0.00161
116 | ACTACACC | -0.0398
117 | AGGTCTCC | -0.081
118 | CAATAGAA | -0.0514
119 | ATCTCCTA | -0.212
120 | CTGAGCCC | -0.0558
121 | CTCTCTAA | -0.0786
122 | ATGGGGGG | -0.367
123 | GTGGCAAA | -0.0476
124 | ACTACGGG | -0.0138
125 | ACGTGCAC | 0.112

Row | Sequence | PBM E-score
126 | GCCTGAGC | -0.144
127 | AGGAACGC | -0.183
128 | GAGCATTA | 0.00142
129 | CTTTCGGA | -0.0684
130 | AGGGTTAA | -0.104
131 | CTGAGGAA | -0.227
132 | GGTCTTGA | -0.151
133 | CTGCTATC | 0.093
134 | AAAGCCAG | -0.24
135 | AATTCGGG | -0.0203
136 | GGCCGCTA | -0.151
137 | ACAACCCG | -0.00349
138 | AAAACGCA | 0.00195
139 | ACAGAATG | 0.0944
140 | ACATTTGC | 0.0282
141 | AGCAAGTA | 0.0322
142 | ACCTGATG | -0.104
143 | AATGGACC | 0.104
144 | ATAGTATC | 0.25
145 | CAGCCAGG | 0.00939
146 | ACGCCATA | -0.0497
147 | CCTCTAGC | -0.25
148 | CCGCATGA | -0.0321
149 | CCCCGTCC | -0.136
150 | AAGCCGCG | -0.0806

Part of the list above in another layout.
Row,Sequence,PBM E-score
149,CCCCGTCC,-0.136
150,AAGCCGCG,-0.0806

From no. 83 to 87, as listed above:
Row | Sequence | PBM E-score
83 | CTTCAAGA | 0.078
84 | GACACGTC | 0.153
85 | GATCTTAA | 0.16
86 | ACGCTCCG | -0.0758
87 | AGGCTTCG | -0.06

The listing continues.

Row | Sequence | PBM E-score
151 | GAGAATAC | 0.165
152 | CATGACAA | 0.238
153 | TCTTGAAA | 0.275
154 | CTAGGCCA | -0.215
155 | AACACGTG | 0.241
156 | GGTCTTAA | -0.16
157 | ACTGCCAG | -0.0989
158 | CTTTGTAC | 0.228
159 | ATACCCAT | -0.086
160 | ACACAAGC | -0.125
161 | TGACTTAA | 0.061
162 | CATCCTAA | 0.078
163 | AAATTCAA | 0.119
164 | CGAATCCC | 0.0659
165 | ACACTACT | 0.0557
166 | AGATGCGG | -0.0364
167 | GGCCAAAA | -0.0557
168 | CCAACCTA | -0.192
169 | CATAACAC | 0.0508
170 | CACCATAG | -0.276
171 | CAGCTGCG | -0.144
172 | CATGCAAA | 0.0125

Part of the list above, field by field.
GGTCTTAA
  PBM E-score = -0.16
ACTGCCAG
  PBM E-score = -0.0989
CTTTGTAC
  PBM E-score = 0.228
ATACCCAT
  PBM E-score = -0.086
